In publication PMC8945107 (ACS Omega, 2022) one finds IC50 data, which are given here for 1 compound.

For orientation: IC50 means the concentration at which inhibition is half-maximal.

SMILES strings stand for the structures.

This test deals with A549. As to the kind of experiment: MTT antiproliferative / cell viability assay, A549. It counts as cell-based. As to conditions: Homo sapiens, A549, 48 h, read-out: IC50 A549.

With `COc1cccc2c1C(=O)c1c(O)c3c(c(O)c1C2=O)C[C@@](O)(C(=O)CO)C[C@@H]3O[C@H]1C[C@H](N)[C@H](O)[C@H](C)O1` [DOX, Doxorubicin], the half-inhibitory concentration (IC50) is 2230 ± 160 nM.
